PubChem BioAssay AID743121 | NCATS, 2013
The deposit covers about 26,000 reagents; shown is an unselected part. 167 of them (0.63%) were called active. 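Calls are per gene from RSA p-values that are not deposited; an individual active-marked siRNA can sensitise only weakly.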 Unmarked entries are inactive. Reagents against one gene are numbered here. Not all columns of the deposit are shown.

- Assay: 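Partners whose loss is lethal together with topoisomerase I blockade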 (primary screen)
- Cell system: MDA-MB-231 cells, a human breast cancer line
- Reagents: single siRNA against human genes, 20 nM siRNA (0.8 pmol per well)
- Timing: 120 h (drug added 48 h after transfection, read 72 h later)
- Conditions: camptothecin 20 nM (about EC30) for 72 h; vehicle 0.1% DMSO in parallel plates
- Measured: 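Cell viability by ATP luminescence (CellTiter-Glo) as % of non-targeting siRNA wells, and the log2 ratio of viability without drug over viability with camptothecin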
- Reading the numbers: log2 vehicle/camptothecin viability: higher = stronger sensitisation to camptothecin
- Call rule: 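Active genes have an RSA gene-level p-value below 0.001, computed from the ratios of their separate siRNAs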

no.	target gene	reagent	log2 vehicle/camptothecin viability
1	RAB29 (GeneID 8934)	1	-0.127
2	RAB29 (GeneID 8934)	2	-0.088
3	RAB29 (GeneID 8934)	3	-0.26
4	LDLRAD4 (GeneID 753)	1	-0.379
5	LDLRAD4 (GeneID 753)	2	0.517
6	LDLRAD4 (GeneID 753)	3	-0.485
7	LDLRAD4 (GeneID 753)	4	-0.114
8	LHX9 (GeneID 56956)	1	-0.142
9	LHX9 (GeneID 56956)	2	-0.622
10	LHX9 (GeneID 56956)	3	0.016
11	LHX9 (GeneID 56956)	4	0.133

Looked up above:
Result of LHX9 (GeneID 56956) #1 under “log2 vehicle/camptothecin viability”: -0.142
For “log2 vehicle/camptothecin viability”, LDLRAD4 (GeneID 753) #2 shows 0.517
Entry for LDLRAD4 (GeneID 753) #1 in “log2 vehicle/camptothecin viability”: -0.379
For “log2 vehicle/camptothecin viability”, LHX9 (GeneID 56956) #2 has -0.622
LDLRAD4 (GeneID 753) #4, log2 vehicle/camptothecin viability → -0.114

The listing continues:
no.	target gene	reagent	log2 vehicle/camptothecin viability
12	PLAUR (GeneID 5329)	1	-0.221
13	PLAUR (GeneID 5329)	2	0.11
14	PLAUR (GeneID 5329)	3	0.0223
15	PLAUR (GeneID 5329)	4	0.0745
16	RNF151 (GeneID 146310)	1	-0.425
17	RNF151 (GeneID 146310)	2	0.0423
18	RNF151 (GeneID 146310)	3	0.0575
19	RNF151 (GeneID 146310)	4	0.0509
20	COL5A1 (GeneID 1289)	1	-0.677
21	COL5A1 (GeneID 1289)	2	-0.268
22	COL5A1 (GeneID 1289)	3	0.0301
23	COL5A1 (GeneID 1289)	4	-0.0465
24	NPBWR1 (GeneID 2831)	1	-0.258
25	NPBWR1 (GeneID 2831)	2	-0.215
26	NPBWR1 (GeneID 2831)	3	0.141
27	COL1A1 (GeneID 1277)	1	0.071
28	COL1A1 (GeneID 1277)	2	-0.152
29	COL1A1 (GeneID 1277)	3	-0.0642
30	COL1A1 (GeneID 1277)	4	0.103
